No constants are given. Whether binding was seen depends on the method and setting. Some results given as binding are weak or reduced against the parent protein; the word gives no strength.
Target: Tag1-CD47 (UniProt Q08722)
Assay: HTRF CD47/SIRPα binding assay (Cisbio): blocking of Tag2-SIRPa binding to Tag1-CD47; axis numbers -3 to 3 read as log10 of nM

Sequences of proteins named here, by UniProt entry; tags and fusion partners are left off. Residues count along the entry.
UniProt Q08722, residues 19-139: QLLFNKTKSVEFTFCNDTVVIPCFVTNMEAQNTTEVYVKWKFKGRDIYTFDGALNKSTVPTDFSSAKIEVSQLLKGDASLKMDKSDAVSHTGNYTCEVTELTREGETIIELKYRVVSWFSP

binding: binds
B1: 34C5 (antibody, V domains shown)
VH: QVQLVQSGAEVKKPGSSVKVSCKASGYTFSSYYMHWVRQAPGQGLEWMGEINPNNARINFNEKFKTRVTLTVDKSTSTAYMELSSLRSEDTAVYYCTRGYYRYGAWFGYWGQGTLVTVSS
VL: DIQMTQSPSSLSASVGDRVTITCRASQDISDYLNWYQQKPGKAPKLLIYYISRLHSGVPSRFSGSGSGTDYTLTISSLQPEDFATYYCQQGHTLPWTFGGGTKVEIK

Reference: patent US20240209093A1
